The supplement of paper PMC10849652
Some of the results follow. Residues, ends and D or L forms follow the SMILES beside them. *: point of attachment. Cbz = O=C(OCc1ccccc1)*

The chains behind the UniProt entries cited, without tags or fusion partners. Where a name states a change or a piece, a line headed by the entry shows the natural chain unless it says otherwise.
UniProt Q147X3: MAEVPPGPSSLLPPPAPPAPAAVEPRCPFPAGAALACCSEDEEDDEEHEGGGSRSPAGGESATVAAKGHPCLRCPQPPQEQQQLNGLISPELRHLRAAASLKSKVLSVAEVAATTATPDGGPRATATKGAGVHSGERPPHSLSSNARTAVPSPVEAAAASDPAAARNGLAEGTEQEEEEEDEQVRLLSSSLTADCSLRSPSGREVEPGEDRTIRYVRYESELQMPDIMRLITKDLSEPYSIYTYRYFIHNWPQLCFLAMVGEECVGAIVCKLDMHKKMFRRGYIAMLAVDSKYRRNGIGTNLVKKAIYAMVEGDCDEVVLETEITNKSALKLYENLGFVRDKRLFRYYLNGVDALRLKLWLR
UniProt Q9NVZ3: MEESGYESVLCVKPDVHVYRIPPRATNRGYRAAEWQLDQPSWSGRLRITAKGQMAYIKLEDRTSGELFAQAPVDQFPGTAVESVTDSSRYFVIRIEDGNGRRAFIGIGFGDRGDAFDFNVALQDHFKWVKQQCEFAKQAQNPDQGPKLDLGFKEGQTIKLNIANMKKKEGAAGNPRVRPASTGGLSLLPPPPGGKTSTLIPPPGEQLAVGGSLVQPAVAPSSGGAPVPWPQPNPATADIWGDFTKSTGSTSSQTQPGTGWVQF
UniProt P28331, whole entry, looked up: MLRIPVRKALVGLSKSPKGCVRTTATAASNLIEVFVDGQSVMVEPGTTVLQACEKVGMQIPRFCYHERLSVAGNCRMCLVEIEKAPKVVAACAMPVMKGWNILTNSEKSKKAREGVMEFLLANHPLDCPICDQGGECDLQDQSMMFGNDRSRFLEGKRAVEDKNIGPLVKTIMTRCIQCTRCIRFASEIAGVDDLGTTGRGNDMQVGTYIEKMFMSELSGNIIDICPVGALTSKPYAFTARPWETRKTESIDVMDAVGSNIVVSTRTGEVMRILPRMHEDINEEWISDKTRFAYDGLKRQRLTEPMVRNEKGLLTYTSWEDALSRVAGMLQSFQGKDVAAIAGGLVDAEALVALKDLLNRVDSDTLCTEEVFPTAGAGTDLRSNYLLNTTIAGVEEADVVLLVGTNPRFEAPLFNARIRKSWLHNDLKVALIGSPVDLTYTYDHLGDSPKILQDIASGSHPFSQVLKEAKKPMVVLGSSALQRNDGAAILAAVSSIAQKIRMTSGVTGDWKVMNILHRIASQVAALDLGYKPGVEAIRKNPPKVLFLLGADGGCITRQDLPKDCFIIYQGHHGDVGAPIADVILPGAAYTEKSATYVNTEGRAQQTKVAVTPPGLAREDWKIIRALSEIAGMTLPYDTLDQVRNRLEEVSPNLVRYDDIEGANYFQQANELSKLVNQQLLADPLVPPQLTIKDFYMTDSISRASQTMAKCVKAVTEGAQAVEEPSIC
UniProt Q8NHV4, whole entry, looked up: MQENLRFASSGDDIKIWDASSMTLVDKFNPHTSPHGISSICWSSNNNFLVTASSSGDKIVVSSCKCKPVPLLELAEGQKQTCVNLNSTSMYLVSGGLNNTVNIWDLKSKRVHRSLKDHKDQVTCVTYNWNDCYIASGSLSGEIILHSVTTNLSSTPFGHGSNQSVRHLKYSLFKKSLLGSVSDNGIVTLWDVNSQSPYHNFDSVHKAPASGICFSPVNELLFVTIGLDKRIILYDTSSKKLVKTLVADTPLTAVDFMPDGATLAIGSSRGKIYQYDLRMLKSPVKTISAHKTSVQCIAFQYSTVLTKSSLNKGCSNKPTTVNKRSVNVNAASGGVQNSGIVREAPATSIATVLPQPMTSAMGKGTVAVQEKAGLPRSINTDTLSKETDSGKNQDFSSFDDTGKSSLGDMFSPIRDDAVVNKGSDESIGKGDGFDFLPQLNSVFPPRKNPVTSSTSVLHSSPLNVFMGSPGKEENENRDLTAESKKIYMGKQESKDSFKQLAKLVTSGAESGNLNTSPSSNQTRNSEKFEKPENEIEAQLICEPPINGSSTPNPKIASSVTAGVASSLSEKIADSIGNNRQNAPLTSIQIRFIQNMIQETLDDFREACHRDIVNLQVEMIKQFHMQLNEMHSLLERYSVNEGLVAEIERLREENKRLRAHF
UniProt Q15843, whole entry, looked up: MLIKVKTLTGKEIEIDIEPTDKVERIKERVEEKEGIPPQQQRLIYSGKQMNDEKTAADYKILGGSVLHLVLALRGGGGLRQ
UniProt Q96HR8: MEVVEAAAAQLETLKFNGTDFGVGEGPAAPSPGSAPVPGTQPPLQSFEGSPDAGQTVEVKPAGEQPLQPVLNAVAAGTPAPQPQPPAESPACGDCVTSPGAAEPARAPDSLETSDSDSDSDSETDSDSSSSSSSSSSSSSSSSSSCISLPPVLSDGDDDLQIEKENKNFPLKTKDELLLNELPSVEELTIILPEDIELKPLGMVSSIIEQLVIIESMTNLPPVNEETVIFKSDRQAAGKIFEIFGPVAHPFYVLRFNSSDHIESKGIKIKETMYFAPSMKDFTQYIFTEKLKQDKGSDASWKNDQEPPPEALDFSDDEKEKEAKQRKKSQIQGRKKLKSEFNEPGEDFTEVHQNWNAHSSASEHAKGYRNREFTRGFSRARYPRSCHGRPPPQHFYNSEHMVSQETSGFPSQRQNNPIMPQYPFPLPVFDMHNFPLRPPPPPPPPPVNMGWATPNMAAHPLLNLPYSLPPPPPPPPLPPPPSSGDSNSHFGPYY
UniProt Q16718, whole entry, looked up: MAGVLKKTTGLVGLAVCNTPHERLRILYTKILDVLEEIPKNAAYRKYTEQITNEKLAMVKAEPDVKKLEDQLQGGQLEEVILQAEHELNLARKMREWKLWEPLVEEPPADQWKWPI
UniProt Q9UGV2: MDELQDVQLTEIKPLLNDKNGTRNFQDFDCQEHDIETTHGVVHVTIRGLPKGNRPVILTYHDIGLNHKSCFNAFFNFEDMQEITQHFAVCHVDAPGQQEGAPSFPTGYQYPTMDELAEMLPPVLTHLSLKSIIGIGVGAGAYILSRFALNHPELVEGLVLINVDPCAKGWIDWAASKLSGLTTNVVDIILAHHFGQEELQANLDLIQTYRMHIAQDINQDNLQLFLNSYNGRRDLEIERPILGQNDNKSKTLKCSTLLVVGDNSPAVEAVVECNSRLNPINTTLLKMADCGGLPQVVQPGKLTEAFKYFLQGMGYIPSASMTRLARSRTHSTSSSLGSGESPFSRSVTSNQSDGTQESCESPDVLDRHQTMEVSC
UniProt Q9Y2A7: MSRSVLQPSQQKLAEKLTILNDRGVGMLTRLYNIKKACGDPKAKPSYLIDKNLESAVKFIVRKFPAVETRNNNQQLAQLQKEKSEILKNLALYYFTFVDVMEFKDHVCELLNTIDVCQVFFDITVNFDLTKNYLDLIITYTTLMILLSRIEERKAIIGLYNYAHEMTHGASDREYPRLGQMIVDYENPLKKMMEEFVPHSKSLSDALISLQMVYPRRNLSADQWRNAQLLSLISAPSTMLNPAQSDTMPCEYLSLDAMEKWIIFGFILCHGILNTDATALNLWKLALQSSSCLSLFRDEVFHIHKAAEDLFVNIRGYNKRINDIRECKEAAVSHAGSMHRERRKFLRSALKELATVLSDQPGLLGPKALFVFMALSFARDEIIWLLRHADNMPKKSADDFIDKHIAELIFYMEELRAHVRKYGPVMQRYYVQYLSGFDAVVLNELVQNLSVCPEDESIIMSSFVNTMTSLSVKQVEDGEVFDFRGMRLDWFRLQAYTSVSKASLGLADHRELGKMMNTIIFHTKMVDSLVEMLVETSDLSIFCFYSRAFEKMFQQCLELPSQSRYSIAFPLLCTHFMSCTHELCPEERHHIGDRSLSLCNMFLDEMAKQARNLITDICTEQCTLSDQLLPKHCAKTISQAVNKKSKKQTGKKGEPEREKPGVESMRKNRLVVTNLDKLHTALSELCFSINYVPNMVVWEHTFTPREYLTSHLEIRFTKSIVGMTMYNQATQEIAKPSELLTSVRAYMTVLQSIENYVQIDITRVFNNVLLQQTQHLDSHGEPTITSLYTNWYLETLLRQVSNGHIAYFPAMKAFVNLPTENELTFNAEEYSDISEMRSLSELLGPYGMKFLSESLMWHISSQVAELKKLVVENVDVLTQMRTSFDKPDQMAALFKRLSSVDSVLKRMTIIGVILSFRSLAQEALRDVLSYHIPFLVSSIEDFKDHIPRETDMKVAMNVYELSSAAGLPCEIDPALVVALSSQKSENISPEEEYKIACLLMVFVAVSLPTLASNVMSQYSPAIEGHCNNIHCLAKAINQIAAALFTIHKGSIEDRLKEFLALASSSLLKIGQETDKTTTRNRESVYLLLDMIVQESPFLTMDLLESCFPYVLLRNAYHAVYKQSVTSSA
UniProt P62166, whole entry, looked up: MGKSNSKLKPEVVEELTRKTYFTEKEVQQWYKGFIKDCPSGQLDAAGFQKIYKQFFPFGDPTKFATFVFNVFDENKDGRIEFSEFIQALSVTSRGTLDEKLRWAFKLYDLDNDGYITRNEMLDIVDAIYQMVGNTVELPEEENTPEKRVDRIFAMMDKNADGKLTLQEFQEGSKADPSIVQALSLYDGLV
UniProt O00217, whole entry, looked up: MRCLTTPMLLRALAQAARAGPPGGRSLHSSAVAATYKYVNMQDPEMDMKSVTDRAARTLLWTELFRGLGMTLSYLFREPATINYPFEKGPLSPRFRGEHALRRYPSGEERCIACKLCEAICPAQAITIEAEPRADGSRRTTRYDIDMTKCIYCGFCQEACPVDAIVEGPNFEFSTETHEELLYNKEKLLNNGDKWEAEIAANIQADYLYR
UniProt P49321, whole entry, looked up: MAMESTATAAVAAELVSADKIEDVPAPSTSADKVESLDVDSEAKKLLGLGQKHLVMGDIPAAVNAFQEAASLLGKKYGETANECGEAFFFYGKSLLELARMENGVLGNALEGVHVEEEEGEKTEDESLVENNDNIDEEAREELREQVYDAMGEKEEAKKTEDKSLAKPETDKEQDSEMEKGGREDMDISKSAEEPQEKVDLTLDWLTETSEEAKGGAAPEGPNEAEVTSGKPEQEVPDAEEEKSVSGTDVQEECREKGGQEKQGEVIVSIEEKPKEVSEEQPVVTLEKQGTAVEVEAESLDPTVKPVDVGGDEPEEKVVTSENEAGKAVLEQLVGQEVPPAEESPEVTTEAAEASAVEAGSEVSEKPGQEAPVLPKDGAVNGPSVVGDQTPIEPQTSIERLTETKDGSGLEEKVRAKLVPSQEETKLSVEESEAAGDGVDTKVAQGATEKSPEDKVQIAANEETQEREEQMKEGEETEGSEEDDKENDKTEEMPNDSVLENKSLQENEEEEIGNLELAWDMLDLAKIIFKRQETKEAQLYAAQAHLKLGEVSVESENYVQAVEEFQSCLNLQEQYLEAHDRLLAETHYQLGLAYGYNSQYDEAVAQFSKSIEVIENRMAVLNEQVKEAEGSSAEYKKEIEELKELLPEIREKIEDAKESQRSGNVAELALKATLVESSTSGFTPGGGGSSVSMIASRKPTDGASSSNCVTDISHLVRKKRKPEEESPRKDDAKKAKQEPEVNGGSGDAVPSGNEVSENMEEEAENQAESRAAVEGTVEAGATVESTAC
UniProt P52849: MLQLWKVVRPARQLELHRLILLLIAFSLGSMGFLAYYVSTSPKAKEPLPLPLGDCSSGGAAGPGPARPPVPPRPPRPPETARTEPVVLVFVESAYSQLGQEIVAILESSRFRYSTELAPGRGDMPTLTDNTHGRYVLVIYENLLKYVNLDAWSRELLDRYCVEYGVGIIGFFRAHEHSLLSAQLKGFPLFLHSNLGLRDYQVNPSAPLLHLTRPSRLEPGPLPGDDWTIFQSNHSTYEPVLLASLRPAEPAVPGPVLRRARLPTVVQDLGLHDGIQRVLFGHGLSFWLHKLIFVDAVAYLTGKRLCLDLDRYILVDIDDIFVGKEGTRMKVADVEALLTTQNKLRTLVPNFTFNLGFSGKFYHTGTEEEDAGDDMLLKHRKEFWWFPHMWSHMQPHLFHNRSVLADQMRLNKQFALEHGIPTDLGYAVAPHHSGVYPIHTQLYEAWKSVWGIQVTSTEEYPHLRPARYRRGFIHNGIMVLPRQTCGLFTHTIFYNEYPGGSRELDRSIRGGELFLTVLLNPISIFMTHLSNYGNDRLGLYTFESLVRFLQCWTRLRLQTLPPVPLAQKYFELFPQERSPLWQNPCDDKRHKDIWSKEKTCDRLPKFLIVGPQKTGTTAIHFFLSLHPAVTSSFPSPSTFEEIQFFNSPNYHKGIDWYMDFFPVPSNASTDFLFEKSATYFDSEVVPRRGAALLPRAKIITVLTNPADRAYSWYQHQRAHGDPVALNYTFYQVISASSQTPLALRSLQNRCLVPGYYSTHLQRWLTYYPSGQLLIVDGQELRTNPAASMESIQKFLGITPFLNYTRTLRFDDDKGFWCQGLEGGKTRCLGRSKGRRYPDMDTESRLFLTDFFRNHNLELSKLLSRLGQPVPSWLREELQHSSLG

Key:
Assay in all cases: log2 fold change, soluble protein after heating vs DMSO (PISA); higher = thermal stabilisation; K562 cells, 10 uM, 30 min; active = over 0.2 and 3.5 SD of the protein, either way, in both replicates (recomputed)
[1] = compound: C#Cc1cccc(Nc2ncnc3cc(OCCOC)c(OCCOC)cc23)c1 [erlotinib]
How it was run: (§1)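 Thermal stability values are relative to control samples and come from duplicates. They are expressed as log2 fold changes. For measurement, K562 cells (2×10^6 cells/mL) received 10 μM compound for 30 min, and aliquots were heated for 3 min over 48°C-58°C, pooled, and extracted at 4°C in PBS with 0.5% NP-40. Soluble protein, the supernatant after 21,000xg for 90 min, was quantified by TMTpro 16plex LC-MS/MS with equalised channel sums.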

[2] = compound: C/C(=N\NC(=O)C1=CC(=CC=C1)S(=O)(=O)N2CCOCC2)/C3=C(C=CC(=C3)Cl)O
How it was run: as §1

[3] = compound: C1=CC(=C(C=C1Cl)C2=NC3=NC=CN=C3C(=N2)NC4=CC=NC=C4)F
How it was run: as §1

[4] = compound: C1=CC(=CC=C1C2=NC3=C(N2)C=C(C=C3)C(=O)N)OC4=CC=C(C=C4)Cl
How it was run: as §1

[5] = compound: C1=CC2=C(C=CC(=C2)/C=C\3/C(=O)NC(=NCC4=CC=CS4)S3)N=C1
How it was run: as §1

[6] = compound: C1=CC2=NC=CN=C2C=C1/C=C/3\C(=O)NC(=O)S3
How it was run: as §1

[7] = compound: C1=CC=C(C=C1)C2=NC(=C(N2)C3=CC=NC=C3)C4=CC(=C(C=C4)Cl)O
How it was run: as §1

[8] = compound: C1=CC=C2C(=C1)C3=NNC4=CC=CC(=C43)C2=O
How it was run: as §1

[9] = compound: C1CCN(C1)C(=O)NC2=CC=CC(=C2)NC3=NC=C(C(=N3)NCCC4=CN=CN4)Br
How it was run: as §1

[10] = compound: C1CN(CCC1(CC2=CC=C(C=C2)Cl)N)C3=NC=NC4=C3C=CN4
How it was run: as §1

[11] = compound: C1COCCN1CCN2C3=CC=CC=C3N=C2NC(=O)C4=CC(=CC=C4)[N+](=O)[O-] [IRAK-1-4 Inhibitor I]
How it was run: as §1

[12] = compound: C=CC(=O)N1CCC[C@@H](n2nc(-c3ccc(Oc4ccccc4)cc3)c3c(N)ncnc32)C1 [ibrutinib]
How it was run: as §1

[13] = compound: CC(=O)c1cnc2ccc(-c3cc(Cl)c(O)c(Cl)c3)nc2c1N[C@H]1CC[C@H](CN(C)C)CC1
How it was run: as §1

[14] = compound: CC(C)(C)Cn1c(N)nc2ccc(-c3[nH]c(C(C)(C)C)nc3-c3ccc(F)cc3)nc21 [ralimetinib]
How it was run: as §1

[15] = compound: CC(C)(O)CC(=O)NCCn1ccc2ncnc(Nc3ccc(Oc4cccc(C(F)(F)F)c4)c(Cl)c3)c21
How it was run: as §1

[16] = compound: CC(C)C1=C2N=C(C=C(N2N=C1)NCC3=CC=CC=C3)NCCCCCCN
How it was run: as §1

[17] = compound: CC(C)C[C@@H](C=O)NC(=O)[C@H](CC(C)C)NC(=O)[C@H](CC(C)C)NC(=O)OCc1ccccc1
How it was run: as §1

[18] = compound: CC(C)N(C[C@H]1O[C@@H](n2cnc3c(N)ncnc32)[C@H](O)[C@@H]1O)[C@H]1C[C@@H](CCc2nc3cc(C(C)(C)C)ccc3[nH]2)C1 [pinometostat]
How it was run: as §1

[19] = compound: CC1=C(C(CC(=O)N1)C2=CC=C(C=C2)C(F)(F)F)C(=O)NC3=C(C=C4C(=C3)C=NN4)F
How it was run: as §1

[20] = compound: CC1=C(C2=C(C=C1)C(=O)C3=CC=CC=C3N2CCCN)C
How it was run: as §1

Measured: log2 fold change

NAA30 (UniProt Q147X3)
inactive: [1] 0.03 | [2] -0.001 | [3] 0.142 | [4] 0.045 | [5] -0.02 | [6] -0.049 | [7] -0.021 | [8] 0.056 | [9] 0.076 | [10] 0.047 | [11] 0.015 | [12] 0.026 | [13] -0.005 | [14] 0.066 | [15] -0.038 | [16] -0.02 | [17] 0.046 | [18] 0.038 | [19] 0.043 | [20] -0.016

NECAP2 (UniProt Q9NVZ3)
inactive: [1] 0.018 | [2] 0.111 | [3] 0.098 | [4] -0.006 | [5] 0.048 | [6] 0.008 | [7] 0.062 | [8] -0.061 | [9] -0.001 | [10] 0.038 | [11] 0.032 | [12] -0.019 | [13] -0.053 | [14] -0.035 | [15] -0.056 | [16] 0.001 | [17] -0.038 | [18] -0.005 | [19] -0.01 | [20] 0.091

NDUFS1 isoform 2 (UniProt P28331)
inactive: [1] 0.009 | [2] -0.019 | [3] 0.049 | [4] 0.012 | [5] 0.069 | [6] 0.036 | [7] 0.033 | [8] 0.062 | [9] 0.003 | [10] 0.04 | [11] 0.012 | [12] -0.022 | [13] -0.004 | [14] -0.011 | [15] -0.148 | [16] -0.041 | [17] 0.012 | [18] -0.008 | [19] 0 | [20] 0.099

NEDD1 isoform 3 (UniProt Q8NHV4)
inactive: [1] 0.002 | [2] 0.014 | [3] 0.005 | [4] -0.001 | [5] 0.028 | [6] 0.025 | [7] 0.028 | [8] -0.032 | [9] -0.03 | [10] -0.007 | [11] 0.007 | [12] -0.059 | [13] 0.003 | [14] 0.018 | [15] 0.002 | [16] 0.026 | [17] 0.009 | [18] -0.013 | [19] -0.017 | [20] 0.026

NEDD8 (UniProt Q15843)
inactive: [1] -0.002 | [2] -0.026 | [3] 0.145 | [4] -0.001 | [5] 0.121 | [6] 0.07 | [7] 0.076 | [8] 0.089 | [9] -0.04 | [10] -0.024 | [11] 0.065 | [12] 0.023 | [13] 0 | [14] -0.056 | [15] -0.113 | [16] 0.073 | [17] -0.052 | [18] -0.039 | [19] 0.026 | [20] 0.091

3 consecutive entries from above:
NAA30 (UniProt Q147X3)
inactive: [1] 0.03 | [2] -0.001 | [3] 0.142 | [4] 0.045 | [5] -0.02 | [6] -0.049 | [7] -0.021 | [8] 0.056 | [9] 0.076 | [10] 0.047 | [11] 0.015 | [12] 0.026 | [13] -0.005 | [14] 0.066 | [15] -0.038 | [16] -0.02 | [17] 0.046 | [18] 0.038 | [19] 0.043 | [20] -0.016

NECAP2 (UniProt Q9NVZ3)
inactive: [1] 0.018 | [2] 0.111 | [3] 0.098 | [4] -0.006 | [5] 0.048 | [6] 0.008 | [7] 0.062 | [8] -0.061 | [9] -0.001 | [10] 0.038 | [11] 0.032 | [12] -0.019 | [13] -0.053 | [14] -0.035 | [15] -0.056 | [16] 0.001 | [17] -0.038 | [18] -0.005 | [19] -0.01 | [20] 0.091

NDUFS1 isoform 2 (UniProt P28331)
inactive: [1] 0.009 | [2] -0.019 | [3] 0.049 | [4] 0.012 | [5] 0.069 | [6] 0.036 | [7] 0.033 | [8] 0.062 | [9] 0.003 | [10] 0.04 | [11] 0.012 | [12] -0.022 | [13] -0.004 | [14] -0.011 | [15] -0.148 | [16] -0.041 | [17] 0.012 | [18] -0.008 | [19] 0 | [20] 0.099

Next results:

NAF1 (UniProt Q96HR8)
inactive: [1] -0.067 | [2] 0.031 | [3] -0.091 | [4] 0.003 | [5] -0.038 | [6] 0.003 | [7] 0.025 | [8] 0.04 | [9] -0.149 | [10] -0.056 | [11] -0.005 | [12] 0.015 | [13] 0.078 | [14] 0.043 | [15] 0.131 | [16] 0.031 | [17] 0.024 | [18] 0.029 | [19] -0.046 | [20] 0.093

NDUFA5 (UniProt Q16718)
inactive: [1] 0.049 | [2] 0.016 | [3] 0.15 | [4] 0.022 | [5] 0.111 | [6] 0.04 | [7] 0.055 | [8] 0.085 | [9] -0.022 | [10] -0.005 | [11] -0.017 | [12] 0.011 | [13] -0.079 | [14] -0.09 | [15] -0.155 | [16] 0.064 | [17] 0.003 | [18] -0.06 | [19] 0.021 | [20] 0.216

NDRG3 (UniProt Q9UGV2)
inactive: [1] -0.017 | [2] -0.048 | [3] 0.061 | [4] 0.033 | [5] 0.026 | [6] 0.047 | [7] -0.135 | [8] -0.057 | [9] 0.016 | [10] 0.018 | [11] 0.001 | [12] -0.009 | [13] -0.011 | [14] -0.088 | [15] -0.021 | [16] -0.036 | [17] 0.121 | [18] 0.003 | [19] -0.006 | [20] -0.057

NCKAP1 isoform 2 (UniProt Q9Y2A7)
inactive: [1] -0.019 | [2] 0.096 | [3] 0.056 | [4] 0.02 | [5] 0.015 | [6] 0.02 | [7] 0.024 | [8] -0.003 | [9] -0.037 | [10] 0.027 | [11] 0 | [12] 0.002 | [13] -0.063 | [14] 0.07 | [15] -0.038 | [16] -0.047 | [17] -0.037 | [18] 0.01 | [20] -0.009

NAA16 (UniProt Q6N069)
inactive: [1] 0.088 | [2] 0.012 | [3] -0.005 | [4] -0.02 | [5] 0.021 | [6] -0.073 | [7] 0.001 | [8] 0.089 | [9] -0.005 | [10] 0.064 | [11] -0.043 | [12] 0.06 | [13] -0.204 | [14] 0.037 | [15] 0.016 | [16] -0.075 | [17] 0.002 | [18] 0.008 | [19] -0.014 | [20] 0.013

NCALD (UniProt P61601)
inactive: [1] 0.117 | [2] 0.04 | [3] -0.007 | [4] -0.023 | [5] 0.028 | [6] 0.02 | [7] -0.001 | [8] 0.075 | [9] 0.045 | [10] 0.078 | [11] -0.001 | [12] 0.001 | [13] -0.012 | [14] -0.023 | [15] -0.098 | [16] -0.055 | [17] -0.005 | [18] 0.055 | [19] -0.047 | [20] -0.04

NCK1 (UniProt P16333)
inactive: [1] 0.045 | [2] 0.206 | [3] -0.066 | [4] 0 | [5] 0.179 | [6] -0.019 | [7] -0.084 | [8] 0 | [9] -0.135 | [10] -0.081 | [11] -0.178 | [12] -0.154 | [13] -0.252 | [14] 0.044 | [15] -0.038 | [16] -0.283 | [17] 0.082 | [18] 0.076 | [20] 0.039

NCS1 (UniProt P62166)
inactive: [1] 0.009 | [2] 0.043 | [3] 0.008 | [4] 0.058 | [5] -0.077 | [6] 0.018 | [7] 0.033 | [8] 0.031 | [9] 0.013 | [10] 0.073 | [11] 0.037 | [12] 0.032 | [13] -0.04 | [14] -0.033 | [15] -0.109 | [16] -0.006 | [17] -0.004 | [18] -0.031 | [19] 0.008 | [20] 0.008

NDUFS8 (UniProt O00217)
inactive: [1] 0.015 | [2] 0.045 | [3] 0.023 | [4] 0.033 | [5] 0.039 | [6] 0.027 | [7] 0.029 | [8] 0.007 | [9] 0.014 | [10] 0.035 | [11] 0.087 | [12] 0.034 | [13] -0.02 | [14] -0.083 | [15] -0.099 | [16] -0.145 | [17] 0.017 | [18] 0.005 | [20] 0.075

NASP (UniProt P49321)
inactive: [1] -0.018 | [2] 0.048 | [3] 0.079 | [4] -0.018 | [5] -0.02 | [6] 0.059 | [7] -0.018 | [8] -0.004 | [9] 0.001 | [10] -0.022 | [11] 0.01 | [12] -0.044 | [13] 0.033 | [14] 0.019 | [15] -0.004 | [16] -0.05 | [17] -0.009 | [18] -0.048 | [20] -0.09

NDST2 (UniProt P52849)
inactive: [1] -0.085 | [2] -0.07 | [3] -0.021 | [4] 0.05 | [5] 0.033 | [6] 0.135 | [7] -0.039 | [8] -0.04 | [9] -0.028 | [10] 0.002 | [11] -0.034 | [12] -0.153 | [13] -0.119 | [14] 0.024 | [15] 0.013 | [16] -0.103 | [17] 0.102 | [18] 0.048 | [19] -0.041 | [20] -0.01
